These are yes or no findings as the source states them, for the method shown. Binding seen in cells or lysates may run through a third protein. Binding calls can cover weak binding; strength is not graded here. Values belong to the molecule of their own block, whether it stands above or below them.
How the values were obtained:
[1] = target: TgPanK2-mAIDHA (Toxoplasma gondii) (UniProt V5B595); test: co-IP; GFP-Trap and anti-HA beads on T. gondii tachyzoite lysates; denaturing western blots with anti-GFP, anti-HA and pan-14-3-3 antibodies
[2] = target: TgPanK2-GFP (Toxoplasma gondii) (UniProt V5B595); test: as above
[3] = target: PfPanK1-GFP (Plasmodium falciparum) (UniProt Q8ILP4); test: co-IP; GFP-Trap immunoprecipitation from lysates of saponin-isolated P. falciparum trophozoites; denaturing western blot with pan-specific anti-14-3-3 antibody
[4] = target: PfPanK2-GFP (Plasmodium falciparum) (UniProt Q8IL92); test: as above

By UniProt entry, the sequences of proteins in these tests, tags left out. Where a name states a change or a piece, a line headed by the entry shows the natural chain unless it says otherwise.
UniProt Q8ILP4: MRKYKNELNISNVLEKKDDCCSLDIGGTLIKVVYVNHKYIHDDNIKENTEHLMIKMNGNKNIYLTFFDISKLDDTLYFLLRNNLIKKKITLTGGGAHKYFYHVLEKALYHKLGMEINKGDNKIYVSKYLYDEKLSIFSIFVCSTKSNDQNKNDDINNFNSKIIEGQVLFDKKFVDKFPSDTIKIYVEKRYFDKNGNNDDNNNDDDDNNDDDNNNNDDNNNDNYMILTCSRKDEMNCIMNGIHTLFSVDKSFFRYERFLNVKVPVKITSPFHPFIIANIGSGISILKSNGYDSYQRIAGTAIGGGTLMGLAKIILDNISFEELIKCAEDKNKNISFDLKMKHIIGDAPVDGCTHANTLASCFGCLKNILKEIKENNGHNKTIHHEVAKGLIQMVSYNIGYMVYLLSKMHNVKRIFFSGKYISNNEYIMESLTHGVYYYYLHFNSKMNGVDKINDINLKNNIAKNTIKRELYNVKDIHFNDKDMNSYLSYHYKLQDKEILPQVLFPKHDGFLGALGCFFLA
UniProt Q8IL92: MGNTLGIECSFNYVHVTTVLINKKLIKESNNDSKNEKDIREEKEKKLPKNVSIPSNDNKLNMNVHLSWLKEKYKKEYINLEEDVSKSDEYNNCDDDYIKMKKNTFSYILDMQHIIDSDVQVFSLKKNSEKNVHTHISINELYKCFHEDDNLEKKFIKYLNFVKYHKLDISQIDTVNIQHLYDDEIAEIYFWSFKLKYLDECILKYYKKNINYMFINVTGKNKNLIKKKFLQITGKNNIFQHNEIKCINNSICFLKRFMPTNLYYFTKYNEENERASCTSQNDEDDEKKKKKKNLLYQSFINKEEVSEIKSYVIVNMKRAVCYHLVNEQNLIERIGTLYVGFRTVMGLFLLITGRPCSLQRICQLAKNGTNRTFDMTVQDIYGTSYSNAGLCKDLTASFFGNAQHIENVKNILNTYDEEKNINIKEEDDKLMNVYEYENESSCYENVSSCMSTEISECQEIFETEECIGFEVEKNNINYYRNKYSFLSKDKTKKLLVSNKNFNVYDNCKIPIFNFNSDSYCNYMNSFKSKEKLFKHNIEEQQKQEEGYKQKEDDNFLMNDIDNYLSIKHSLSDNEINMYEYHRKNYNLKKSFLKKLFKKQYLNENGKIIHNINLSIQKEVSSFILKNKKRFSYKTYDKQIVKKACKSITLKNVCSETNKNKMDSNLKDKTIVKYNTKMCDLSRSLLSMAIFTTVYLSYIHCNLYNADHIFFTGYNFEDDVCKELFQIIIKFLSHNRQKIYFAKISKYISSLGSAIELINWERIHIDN

Molecule: TgPanK1-GFP (from UniProt A0A125YTW9) (enzyme)
binding [1]: binds

Molecule: TgPanK1-HA (from UniProt A0A125YTW9) (enzyme)
binding [2]: binds

binding [3]: binds
binding [4]: binds
B1: Pf14-3-3I (protein, UniProt C0H4V6 1-262)
chain: MATSEELKQLRCDCTYRSKLAEQAERYDEMADAMRTLVEQCVNNDKDELTVEERNLLSVAYKNAVGARRASWRIISSVEQKEMSKANVHNKNVAATYRKKVEEELNNICQDILNLLTKKLIPNTSESESKVFYYKMKGDYYRYISEFSCDEGKKEASNCAQEAYQKATDIAENELPSTHPIRLGLALNYSVFFYEILNQPHQACEMAKRAFDDAITEFDNVSEDSYKDSTLIMQLLRDNLTLWTSDLQGDQTEEKSKDEGLE

From paper PMC8366970
